Experimental data: PubChem BioAssay AID1259273 (Sanger Institute, 2017)
Purpose: 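Confirm kinome hits that work in synergy with targeted cancer drugs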 (follow-up of hits). Cell system: human NCI-H630 colorectal cancer cells. Reagents: single siRNA against human genes. Conditions: anchor drugs BYL719 at 1 µM, cetuximab at 5 µg/ml or trametinib at 10 nM, or DMSO vehicle alone. Measurement: 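Viability relative to wells given a non-targeting control pool; synergy score for each anchor drug, weighing combined effect against siRNA only and drug only; replicate means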. Reading the numbers: synergy score with trametinib and synergy score with BYL719 and synergy score with cetuximab: higher = stronger synergy, more synthetic lethal; viability with trametinib: higher = more viable cells with knock-down plus drug. Call rule: 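a duplex counts as synthetic lethal if its averaged synergy score exceeds 0.10 with BYL719, cetuximab or trametinib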.
Here is one part, drawn at random, of 160 deposited reagents. Over the whole deposit, 36 (22%) were called active. 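Four distinct siRNA duplexes per gene; each call applies to one duplex and is not gene-level validation across cell lines.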 The numbers tell different reagents against one gene apart. Viability is capped at 1. Further read-outs or replicates are left out here. The record does not give: the amount of reagent, the time to read-out.

gene | reagent | synergy score with trametinib | synergy score with BYL719 | synergy score with cetuximab | viability with trametinib (fraction of control) | call
IRAK1 | 1 | 0.135 | -0.124 | -0.129 | 0.762 | active
IRAK1 | 2 | -0.103 | -0.0405 | -0.0538 | 1 | inactive
IRAK1 | 3 | -0.0244 | 0.0506 | 0.0433 | 0.812 | inactive
IRAK1 | 4 | -0.0862 | -0.145 | -0.0903 | 0.968 | inactive
ACVR1 | 1 | -0.103 | -0.146 | -0.23 | 1 | inactive
ACVR1 | 2 | 0.0257 | -0.146 | -0.153 | 0.871 | inactive
ACVR1 | 3 | -0.103 | -0.146 | -0.23 | 1 | inactive
ACVR1 | 4 | -0.0241 | -0.245 | -0.139 | 0.816 | inactive
NLK | 1 | 0.0415 | -0.123 | -0.0839 | 0.75 | inactive
NLK | 2 | 0.0805 | -0.0438 | 0.0392 | 0.633 | inactive
NLK | 3 | -0.103 | -0.146 | -0.226 | 1 | inactive
NLK | 4 | -0.101 | -0.146 | -0.23 | 0.998 | inactive

Next part; the last 5 above are carried over.
gene | reagent | synergy score with trametinib | synergy score with BYL719 | synergy score with cetuximab | viability with trametinib (fraction of control) | call
ACVR1 | 4 | -0.0241 | -0.245 | -0.139 | 0.816 | inactive
NLK | 1 | 0.0415 | -0.123 | -0.0839 | 0.75 | inactive
NLK | 2 | 0.0805 | -0.0438 | 0.0392 | 0.633 | inactive
NLK | 3 | -0.103 | -0.146 | -0.226 | 1 | inactive
NLK | 4 | -0.101 | -0.146 | -0.23 | 0.998 | inactive
CDKN2D | 1 | 0.0344 | -0.154 | 0.0584 | 0.781 | inactive
CDKN2D | 2 | 0.102 | 0.0354 | 0.0742 | 0.533 | active
CDKN2D | 3 | 0.15 | -0.113 | -0.0763 | 0.747 | active
CDKN2D | 4 | 0.197 | 0.181 | 0.0173 | 0.645 | active
GRK5 | 1 | -0.103 | -0.146 | -0.179 | 1 | inactive
GRK5 | 2 | -0.103 | -0.146 | -0.23 | 1 | inactive
GRK5 | 3 | 0.145 | -0.101 | -0.065 | 0.752 | active
GRK5 | 4 | 0.0871 | -0.136 | 0.0819 | 0.807 | inactive
STK36 | 1 | 0.115 | -0.112 | -0.104 | 0.651 | active
STK36 | 2 | -0.0976 | -0.146 | -0.23 | 0.994 | inactive
STK36 | 3 | 0.0608 | -0.177 | -0.00689 | 0.803 | inactive
STK36 | 4 | -0.0426 | -0.0735 | -0.218 | 0.939 | inactive
CAMK2N1 | 1 | -0.103 | -0.146 | 0.0177 | 1 | inactive
CAMK2N1 | 2 | -0.0737 | -0.0996 | -0.133 | 0.893 | inactive
CAMK2N1 | 3 | -0.163 | 0.0119 | 0.0694 | 1 | inactive
CAMK2N1 | 4 | -0.214 | -0.16 | -0.114 | 0.983 | inactive
MARK3 | 1 | 0.0871 | -0.127 | -0.0508 | 0.798 | inactive
MARK3 | 2 | 0.0356 | -0.156 | -0.0598 | 0.822 | inactive
MARK3 | 3 | 0.177 | -0.146 | -0.0283 | 0.719 | active
MARK3 | 4 | 0.00478 | -0.146 | -0.142 | 0.892 | inactive
NR2F2 | 1 | 0.103 | -0.0931 | -0.154 | 0.793 | active
NR2F2 | 2 | -0.103 | -0.146 | -0.23 | 1 | inactive
NR2F2 | 3 | -0.017 | -0.127 | -0.23 | 0.914 | inactive
NR2F2 | 4 | 0.0294 | -0.0244 | -0.114 | 0.728 | inactive
